{
  "source": "PubChem BioAssay AID651640",
  "about": "(Broad Institute, 2012)",
  "note": "The campaign covered roughly 350,000 compounds. About 6,000 (1.7%) were called active. The shares of active, inactive and inconclusive entries below differ from those in the screen. Rule as the data show it: active = CPE inhibition above about 20% (passing the limit was not always enough); inconclusive = no clear call, values can overlap the other calls; tested in BHK-21 cells.",
  "data": [
    {"test": "protection of cells from dengue 2 killing – plate reader, single concentration, primary screen (AID 651640);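 also: 0% = median of neutral control wells and 100% = median of positive control wells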", "conditions": "DENV2-infected cells, cytopathic effect rescue, at 9.99 µM, hits give high values", "values": [
      {"compound": "CO[C@@H]1CN(C)C(=O)c2ccc(NS(C)(=O)=O)cc2OC[C@@H](C)N(CCC(F)(F)F)C[C@@H]1C", "CPE inhibition": "inactive: -3.1%"},
      {"compound": "COc1ccc(C2=C/C(=C\\c3ccc(OC(C)=O)cc3)C(=O)O2)cc1", "CPE inhibition": "inactive: 2.55%"},
      {"compound": "CNC(=O)C[C@H]1CC[C@H]2[C@H](COc3ccc(NC(=O)c4ccc(F)c(F)c4)cc3C(=O)N2C)O1", "CPE inhibition": "inconclusive: 84.5%"},
      {"compound": "CN(C)C(=O)[C@H]1[C@H](CO)[C@H]2Cn3c(ccc(-c4ccccc4F)c3=O)[C@@H]1N2C(=O)c1ccccc1", "CPE inhibition": "inactive: -1.71%"},
      {"compound": "c1ccc(N2CCN(c3ccc4nncn4n3)CC2)nc1", "CPE inhibition": "inconclusive: 60.7%"},
      {"compound": "C/C(=N\\NC(=O)c1ccncc1)c1cccc(NC(=O)c2ccc(C(C)(C)C)cc2)c1", "CPE inhibition": "inactive: -7.35%"},
      {"compound": "COc1ccccc1NC(=O)N[C@@H]1CC[C@H](CC(=O)N[C@H](C)c2ccccc2)O[C@H]1CO", "CPE inhibition": "inconclusive: 28%"},
      {"compound": "CC(C)C[C@@H](CNCC(=O)[C@H](Cc1c[nH]c2ccccc12)NC(=O)c1[nH]cnc1C(=O)N[C@@H](C)CN)NC(=O)c1nc[nH]c1C(=O)N[C@@H](CC(=O)O)C(=O)O", "CPE inhibition": "inactive: -0.235%"},
      {"compound": "COC(=O)c1ccc(C(=O)Nc2ccc3nc(-c4ccncc4)[nH]c3c2)cc1", "CPE inhibition": "inactive: -3.59%"},
      {"compound": "C/C(=N\\NC(=O)c1ccccc1F)c1ccc(C#N)cc1", "CPE inhibition": "inactive: -0.315%"},
      {"compound": "COc1cc(C)ccc1OCc1cc(C(=O)NCCN2CCOCC2)no1", "CPE inhibition": "inconclusive: 22.5%"},
      {"compound": "Cc1ccc(S(=O)(=O)N(C)C[C@@H]2Oc3ncc(C#Cc4ccccc4)cc3C(=O)N([C@H](C)CO)C[C@@H]2C)cc1", "CPE inhibition": "inactive: -1.71%"},
      {"compound": "C[C@@H]1CCCCO[C@@H](CN(C)C)[C@H](C)CN([C@H](C)CO)C(=O)c2cc(NS(=O)(=O)c3ccc(Cl)cc3)ccc2O1", "CPE inhibition": "inconclusive: 75.1%"},
      {"compound": "O=C(C[C@@H]1C=C[C@H](NC(=O)C2CCOCC2)[C@@H](CO)O1)NCc1ccccc1Cl", "CPE inhibition": "inconclusive: 41.5%"},
      {"compound": "Cc1nnc(NC(=O)CCn2c(=O)oc3ccc(Cl)cc32)s1", "CPE inhibition": "active: 23.5%"},
      {"compound": "Cc1ccc(Nc2cc(C)nc3nc(C)nn23)cc1", "CPE inhibition": "inconclusive: 31.8%"},
      {"compound": "CC(C)CC#Cc1cnc2c(c1)C(=O)N([C@H](C)CO)C[C@H](C)[C@H](CN(C)S(=O)(=O)c1cn(C)cn1)O2", "CPE inhibition": "inactive: -2.19%"},
      {"compound": "Cc1ccc(C#N)c(SCc2ccccc2[N+](=O)[O-])n1", "CPE inhibition": "inactive: 2.9%"},
      {"compound": "C[C@@H]1CN([C@@H](C)CO)C(=O)c2cc(C#CCN(C)C)cnc2O[C@@H]1CN(C)Cc1ccc(-c2ccccc2)cc1", "CPE inhibition": "inconclusive: 23.9%"},
      {"compound": "CCN1C(=O)[C@H]2[C@@H](c3ccc(C)cc3)N[C@]3(CCCN(Cc4cccn4C)C3=O)[C@H]2C1=O", "CPE inhibition": "inconclusive: 48.9%"},
      {"compound": "CN(C)C(=O)c1ccc(-c2ccccc2[C@@H]2[C@@H](CO)N(C(=O)C3CCCCC3)[C@H]2C#N)cc1", "CPE inhibition": "active: 28.6%"},
      {"compound": "Cc1cccc(Cl)c1NC(=O)N(C)c1ccccc1", "CPE inhibition": "inconclusive: 23.5%"},
      {"compound": "C[C@@H](NC(=O)C[C@H]1CC[C@@H](NC(=O)C2CCC2)[C@H](CO)O1)c1ccccc1", "CPE inhibition": "inactive: 5.75%"},
      {"compound": "COc1ccc(Cl)cc1-c1cc(C(=O)N[C@H](C)c2ccccc2)[nH]n1", "CPE inhibition": "active: 73.7%"},
      {"compound": "O=C1NC(Cc2ccc(O)cc2)c2nc3ccccc3c(=O)n2-c2ccccc21", "note": "(configuration not stated)", "CPE inhibition": "active: 38.7%"},
      {"compound": "CC(C)NC(=O)Nc1cccc2c1O[C@@H](CN(C)Cc1ccc(C(F)(F)F)cc1)[C@@H](C)CN([C@@H](C)CO)C2=O", "CPE inhibition": "inconclusive: 38.9%"},
      {"compound": "OC[C@H]1[C@@H](c2ccc(-c3cccnc3)cc2)[C@H]2CN(CC3CCOCC3)CCCCN21", "CPE inhibition": "inactive: 0.368%"},
      {"compound": "COc1ccc(CC(N)c2csc(NC(=O)Nc3ccc(OC)cc3)n2)cc1", "note": "(configuration not stated)", "CPE inhibition": "inconclusive: 39.9%"},
      {"compound": "Cc1cc(Oc2cc(NN3CCCCC3)c([N+](=O)[O-])cc2[N+](=O)[O-])c(C(=O)c2ccccc2)cc1Cl", "CPE inhibition": "inconclusive: 30.4%"},
      {"compound": "C/C=C/c1ccc([C@@H]2[C@@H](CO)N3CCCCN(S(=O)(=O)c4ccc(OC)cc4)C[C@@H]23)cc1", "CPE inhibition": "inconclusive: 23%"},
      {"compound": "O=C(O)c1cc(NC(=O)c2ccc3c(c2)C(=O)N(Cc2ccccc2)C3=O)cc(C(=O)O)c1", "CPE inhibition": "inconclusive: 30.7%"},
      {"compound": "Cc1ccc(S(=O)(=O)N[C@H]2CC[C@H](CCNC(=O)C3CCOCC3)O[C@@H]2CO)cc1", "CPE inhibition": "active: 25.2%"},
      {"compound": "Cc1ccc(N(CC(=O)NC(C)(C)C)C(=O)CNC(=O)c2cccs2)c(C)c1", "CPE inhibition": "inactive: 3.59%"},
      {"compound": "C[C@@H]1CN([C@@H](C)CO)C(=O)c2cc(NC(=O)CCC(F)(F)F)ccc2O[C@@H](C)CCCCO[C@@H]1CN(C)S(=O)(=O)c1ccc(Cl)cc1", "CPE inhibition": "inconclusive: 43.5%"},
      {"compound": "C[C@H]1CN([C@@H](C)CO)C(=O)c2cc(NS(=O)(=O)c3ccc(F)cc3)ccc2O[C@H]1CN(C)S(=O)(=O)c1ccccc1", "CPE inhibition": "inconclusive: 45.9%"},
      {"compound": "C#CCOCCOCCOCCNc1nc(N2CCN(C(=O)[C@H](C)n3cc(CCC(=O)O)nn3)CC2)nc(N2CCN(C(=O)[C@H](Cc3ccc(O)cc3)n3cc(CCO)nn3)CC2)n1", "CPE inhibition": "inconclusive: 40.5%"},
      {"compound": "CCCN(C)C[C@H]1OCCCC[C@@H](C)Oc2ccc(NS(=O)(=O)c3ccc(OC)cc3)cc2C(=O)N([C@H](C)CO)C[C@@H]1C", "CPE inhibition": "active: 54.8%"},
      {"compound": "O=C(C[C@@H]1C[C@H]2c3cc(NC(=O)C4CCC4)ccc3O[C@H]2[C@H](CO)O1)NCc1ccc(-c2ccccc2)cc1", "CPE inhibition": "inactive: 16.6%"},
      {"compound": "CCCC(O)C#Cc1cnc2c(c1)C(=O)N([C@H](C)CO)C[C@H](C)[C@H](CN(C)S(=O)(=O)c1cccs1)O2", "note": "(some centres not stated)", "CPE inhibition": "inconclusive: 32.5%"},
      {"compound": "C[C@@H]1CN([C@@H](C)CO)C(=O)c2cc(NS(=O)(=O)c3ccc(Cl)cc3)ccc2O[C@H]1CN(C)S(=O)(=O)c1ccc(Cl)cc1", "CPE inhibition": "inconclusive: 24.4%"},
      {"compound": "CCN(C[C@H]1[C@H](c2ccccc2)[C@H](CO)N1C(C)=O)C(=O)NC(C)C", "CPE inhibition": "active: 27.2%"},
      {"compound": "Cc1ccc(-n2nc3c(N4CCC(C(=O)N5CCN(C)CC5)CC4)nnc(C)c3c2C)cc1", "CPE inhibition": "inconclusive: 26.2%"}
    ]}
  ]
}
